Experimental data taken from US4280993A, “Process for determining the concentration of benzodiazepines in a body fluid” (priority 1978, dated 1981).

How the values were obtained:
brain membranes = settings: cited from earlier work

Compound	specific binding capacity, hippocampus (rat brains)	specific binding, frontal and occipital cortex versus pons-medulla (rat brains)	specific binding to brain membranes (brain membranes)
CN1C(=O)CN=C(c2ccccc2)c2cc(Cl)ccc21 [^3 H-diazepam]	intermediate binding capacity	four times higher	–
CN1C(=O)CN=C(c2ccccc2)c2cc(Cl)ccc21 [diazepam]	–	–	specifically binds to brain membranes with high affinity
